Reference: doi:10.1101/228379
Results are given in words; binding and its absence hold for the method and conditions named. For some assays here: In cells and extracts the contact can be indirect. Some results given as binding are weak or reduced against the parent protein; the word gives no strength. Tags and fused reporters may be left off the sequences shown.

T1: FLAG-tagged full-length KDM2B (UniProt Q8NHM5)
T1 sequence: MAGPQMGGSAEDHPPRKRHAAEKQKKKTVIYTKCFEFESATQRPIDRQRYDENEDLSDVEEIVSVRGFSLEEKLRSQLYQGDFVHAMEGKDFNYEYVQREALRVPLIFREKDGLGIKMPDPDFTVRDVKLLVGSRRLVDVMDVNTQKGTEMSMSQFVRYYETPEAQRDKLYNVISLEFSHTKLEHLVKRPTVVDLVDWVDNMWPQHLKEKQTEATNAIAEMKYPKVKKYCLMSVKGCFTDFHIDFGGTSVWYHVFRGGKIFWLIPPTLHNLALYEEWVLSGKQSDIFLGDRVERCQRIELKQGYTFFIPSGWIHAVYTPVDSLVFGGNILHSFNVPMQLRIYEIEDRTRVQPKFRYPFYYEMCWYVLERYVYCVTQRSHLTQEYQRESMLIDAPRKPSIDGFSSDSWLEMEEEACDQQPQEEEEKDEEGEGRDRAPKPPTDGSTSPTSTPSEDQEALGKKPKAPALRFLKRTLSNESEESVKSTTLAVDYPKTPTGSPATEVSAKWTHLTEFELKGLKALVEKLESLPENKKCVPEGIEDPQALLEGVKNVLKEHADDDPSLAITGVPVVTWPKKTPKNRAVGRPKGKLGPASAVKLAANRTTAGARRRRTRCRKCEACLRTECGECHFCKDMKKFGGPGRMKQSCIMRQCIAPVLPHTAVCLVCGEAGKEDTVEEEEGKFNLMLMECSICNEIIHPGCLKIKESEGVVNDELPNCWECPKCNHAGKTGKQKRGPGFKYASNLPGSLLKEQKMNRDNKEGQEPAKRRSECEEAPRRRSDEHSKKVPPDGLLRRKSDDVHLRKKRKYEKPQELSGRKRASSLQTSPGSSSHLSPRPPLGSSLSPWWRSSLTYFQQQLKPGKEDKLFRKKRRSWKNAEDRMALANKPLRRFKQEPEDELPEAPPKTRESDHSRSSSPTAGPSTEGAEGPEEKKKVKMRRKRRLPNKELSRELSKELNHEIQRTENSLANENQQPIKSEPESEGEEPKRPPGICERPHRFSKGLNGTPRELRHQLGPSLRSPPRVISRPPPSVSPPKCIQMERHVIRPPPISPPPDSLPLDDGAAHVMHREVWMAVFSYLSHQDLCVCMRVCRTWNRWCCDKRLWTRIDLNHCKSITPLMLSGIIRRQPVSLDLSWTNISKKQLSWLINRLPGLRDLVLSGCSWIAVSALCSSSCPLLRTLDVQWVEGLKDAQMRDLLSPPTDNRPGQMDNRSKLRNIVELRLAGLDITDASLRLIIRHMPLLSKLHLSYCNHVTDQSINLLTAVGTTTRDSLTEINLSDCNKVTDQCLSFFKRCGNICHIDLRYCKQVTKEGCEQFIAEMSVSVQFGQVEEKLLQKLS

T2: GST-KDM2B_(1–734) (UniProt Q8NHM5)
T2 sequence: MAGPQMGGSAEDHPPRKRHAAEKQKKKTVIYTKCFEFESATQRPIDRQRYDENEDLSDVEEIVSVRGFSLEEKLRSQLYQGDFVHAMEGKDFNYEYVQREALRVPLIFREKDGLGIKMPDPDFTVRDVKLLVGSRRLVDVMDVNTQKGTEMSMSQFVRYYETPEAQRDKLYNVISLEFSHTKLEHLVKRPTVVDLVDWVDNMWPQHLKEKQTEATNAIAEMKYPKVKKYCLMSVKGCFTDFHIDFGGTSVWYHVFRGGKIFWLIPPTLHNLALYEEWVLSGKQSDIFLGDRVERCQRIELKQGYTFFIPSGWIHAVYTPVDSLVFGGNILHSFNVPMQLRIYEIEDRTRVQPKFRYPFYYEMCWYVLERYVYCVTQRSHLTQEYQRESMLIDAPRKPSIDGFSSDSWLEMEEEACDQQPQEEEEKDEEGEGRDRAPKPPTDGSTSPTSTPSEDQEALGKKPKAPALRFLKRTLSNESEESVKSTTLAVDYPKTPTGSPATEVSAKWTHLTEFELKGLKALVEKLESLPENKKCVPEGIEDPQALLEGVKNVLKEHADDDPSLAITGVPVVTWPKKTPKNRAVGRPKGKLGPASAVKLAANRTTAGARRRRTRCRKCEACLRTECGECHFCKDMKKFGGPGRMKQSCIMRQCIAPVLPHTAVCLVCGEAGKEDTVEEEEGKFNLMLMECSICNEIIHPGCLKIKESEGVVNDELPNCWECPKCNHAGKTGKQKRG

B1: CBX8, endogenous in 293T cells (protein, UniProt Q9HC52 1-389)
chain: MELSAVGERVFAAEALLKRRIRKGRMEYLVKWKGWSQKYSTWEPEENILDARLLAAFEEREREMELYGPKKRGPKPKTFLLKAQAKAKAKTYEFRSDSARGIRIPYPGRSPQDLASTSRAREGLRNMGLSPPASSTSTSSTCRAEAPRDRDRDRDRDRERDRERERERERERERERERERGTSRVDDKPSSPGDSSKKRGPKPRKELPDPSQRPLGEPSAGLGEYLKGRKLDDTPSGAGKFPAGHSVIQLARRQDSDLVQCGVTSPSSAEATGKLAVDTFPARVIKHRAAFLEAKGQGALDPNGTRVRHGSGPPSSGGGLYRDMGAQGGRPSLIARIPVARILGDPEEESWSPSLTNLEKVVVTDVTSNFLTVTIKESNTDQGFFKEKR

How the values were obtained:
[1] = molecular target: T1, FLAG-tagged full-length KDM2B; experiment: co-IP
GST-KDM2B_(1–734) = molecular target: T2, GST-KDM2B_(1–734); experiment: ITC

Binder	binding [1]	binding (GST-KDM2B_(1–734))
B1	binds	–
AQDFKTDLR (trimethyl-lysine K(me3) at H3K79) [Tri-methyl H3K79 peptide AQDFK(me3)TDLR]	–	binds
